Test results reported in PubChem BioAssay AID588590 (National Center for Advancing Translational Sciences (NCATS), 2011).
The campaign covered roughly 390,000 compounds. About 4,000 (1%) were called active. This list was built around the results that the source calls inconclusive (neither active nor inactive); the mix of calls is not that of the screen. Calls follow the shape of the dose curve; as a rule, active = well fitted inhibition curve with a large enough effect; inconclusive = small, poorly fitted or top-dose-only effect, or another doubt; inactive = no such curve, though single readings can be large or run the other way. Potencies beside an inconclusive call are fits to weak or partial responses and may not hold up.

Chains of the proteins cited; added tags and fusions are not shown. Lines headed by an entry give the natural chain unless they say otherwise; changes in a name come on top.
UniProt Q9UNA4: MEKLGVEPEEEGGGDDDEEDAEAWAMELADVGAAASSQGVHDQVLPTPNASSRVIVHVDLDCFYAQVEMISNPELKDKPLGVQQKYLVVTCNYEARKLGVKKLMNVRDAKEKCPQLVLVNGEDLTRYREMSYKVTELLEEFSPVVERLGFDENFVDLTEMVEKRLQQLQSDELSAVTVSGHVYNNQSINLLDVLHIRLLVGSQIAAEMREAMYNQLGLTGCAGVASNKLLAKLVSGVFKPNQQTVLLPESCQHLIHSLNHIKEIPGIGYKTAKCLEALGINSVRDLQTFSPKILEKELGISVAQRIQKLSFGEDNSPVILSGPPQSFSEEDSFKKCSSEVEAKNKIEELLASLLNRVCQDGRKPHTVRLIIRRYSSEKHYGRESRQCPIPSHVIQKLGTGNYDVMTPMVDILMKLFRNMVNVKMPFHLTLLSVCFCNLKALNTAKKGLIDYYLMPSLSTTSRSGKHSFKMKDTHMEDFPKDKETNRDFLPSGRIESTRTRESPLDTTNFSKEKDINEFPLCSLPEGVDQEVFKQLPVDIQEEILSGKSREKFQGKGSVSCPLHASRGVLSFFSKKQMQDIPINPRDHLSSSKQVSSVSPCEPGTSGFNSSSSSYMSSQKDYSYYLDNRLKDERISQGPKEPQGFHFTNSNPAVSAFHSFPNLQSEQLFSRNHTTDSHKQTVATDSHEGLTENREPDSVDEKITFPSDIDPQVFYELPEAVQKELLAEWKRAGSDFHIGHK

Target: DNA polymerase iota (Homo sapiens) (UniProt Q9UNA4)
Test: qHTS for Inhibitors of Polymerase Iota
Settings: Pol iota fluorescent replication assay, 10 min; series mostly up to 115 µM
Method in brief: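 Pol iota at 10 nM preincubated 15 min with compounds at room temperature; reaction started with fluorescent substrate, 50 nM final. Fluorescence read kinetically at 0 and 10 min; buffer-only wells as negative control.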
Potency is read from the fitted curve at half-maximal effect.

| Compound | Potency |
| --- | --- |
| CCS(=O)(=O)N1CCN(S(=O)(=O)c2ccc3ccccc3c2)CC1 | inactive |
| O=C(Nc1cccc(-c2cn3cccnc3n2)c1)c1cccs1 | inconclusive: 79.4 µM [inhibitor, single point] |
| C/C=C/c1ccc(OCC(O)CN2CCCCCCC2)c(OC)c1 (configuration not stated) | inconclusive: 3.16 µM [inhibitor, full curve] |
| COc1ccc(NC(=O)c2cc(S(=O)(=O)N3CCCCC3)c[nH]2)c(OC)c1 | inconclusive: 44.7 µM [inhibitor, partial curve, poor fit] |
| Cc1cc(O)c(-c2cc(C(=O)NCc3ccc4c(c3)OCO4)[nH]n2)cc1C | inconclusive: 56.2 µM [inhibitor, partial curve, poor fit] |
| CN(C)S(=O)(=O)N(CC(=O)NCCSc1ccccc1)c1ccccc1 | inactive |
| CC(Oc1ccc2ccccc2c1)C(=O)NNC(=O)Nc1ccccc1F (configuration not stated) | inactive |
| Cc1onc(-c2c(F)cccc2Cl)c1C(=O)Nc1nnc(C(F)(F)F)s1 | inconclusive: 44.7 µM [inhibitor, partial curve, poor fit] |
| COc1ccc(C2=NS(=O)(=O)N(C)C(C(=O)Nc3ccc4c(c3)OCO4)=C2)cc1 | inconclusive: 100 µM [inhibitor, single point] |
| CCSc1nc2c([nH]1)c(=O)n(C)c(=S)n2C | inconclusive: 14.1 µM [inhibitor, partial curve, poor fit] |
| COc1ccc(-n2c(SC3CCOC3=O)nc3ccccc32)cc1 (configuration not stated) | inconclusive: 15.8 µM [inhibitor, full curve, poor fit] |
| Cc1cc(C)n(Cc2n[nH]c(=S)n2Cc2ccccc2)n1 | inactive |
| COc1cccc(NS(=O)(=O)c2ccc3[nH]cc(C(=O)N4CCCC4)c(=O)c3c2)c1 | inactive |
| Cc1cc2c(cc3c(SCc4ccccc4Cl)nnc(C)n32)o1 | inactive |
| CC1CCN(c2ncnc3nc[nH]c23)CC1 | inconclusive: 7.08 µM [inhibitor, single point] |
| CCOc1ccc2nc(NC(=O)Cn3[nH]c(=O)c4ccccc4c3=O)sc2c1 | inconclusive: 35.5 µM [inhibitor, single point] |
| Cc1ccc(S/C(=N/S(=O)(=O)c2ccc(Cl)cc2)c2ccccc2)cc1 | inactive |
| COc1cc(C2CC(=O)Nc3c2c(=O)n(C)c2ncnn32)cc(OC)c1OC (configuration not stated) | active: 50.1 µM |
| N#Cc1c(NC(=O)c2ccc([N+](=O)[O-])o2)sc2c1CCC2 | inconclusive: 17.8 µM [inhibitor, full curve] |
| CCOC(=O)C1(S(=O)(=O)c2ccc(Cl)cc2)CCN(Cc2ccc(C)cc2)CC1 | inconclusive: 25.1 µM [inhibitor, partial curve, poor fit] |
| CCC(CC)C(=O)Nc1nnc(S(=O)(=O)N2CCCc3ccccc32)s1 | inconclusive: 8.91 µM [inhibitor, single point] |

| Compound | Potency |
| --- | --- |
| O=C(Nc1ccc(O)cc1)c1ccc(C(=O)c2ccccc2)o1 | inconclusive: 44.7 µM [inhibitor, partial curve] |
| CSCCC(NC(=O)c1ccccc1Cl)C(=O)N1CCCCC1 (configuration not stated) | inconclusive: 0.631 µM [inhibitor, full curve, poor fit] |
| Cc1cc(C)n(C(=O)Cc2cn3ccsc3n2)n1 | inconclusive: 2.24 µM [inhibitor, full curve] |
| Cc1ccc(C(=O)NNc2c3ccccc3nc3ccccc23)cc1 | inconclusive: 56.2 µM [inhibitor, partial curve, poor fit] |
| O=C(COC(=O)c1ccc(Cl)cc1)NC(=O)NC1CCCC1 | inconclusive: 70.8 µM [inhibitor, partial curve] |
| Cc1cc(C)c(C)c(/C=C(/C#N)C(N)=S)c1C | inconclusive: 79.4 µM [inhibitor, partial curve] |
| COc1ccccc1NC(=O)C(=O)NCC(c1cccnc1)N1CCc2ccccc2C1 (configuration not stated) | inactive |
| Cc1c(C(=O)OC(C)C)sc(NC(=O)c2cccnc2)c1C#N | inconclusive: 39.8 µM [inhibitor, single point] |
| C=Cc1ccc(Cn2c(SCC(=O)N3CCN(c4ccc(F)cc4)CC3)nc3ccccc32)cc1 | inactive |
| COCCn1nnnc1C(c1ccccc1)N1CCN(Cc2ccc3c(c2)OCO3)CC1 (configuration not stated) | inconclusive: 3.55 µM [inhibitor, partial curve, poor fit] |
| O=C(N/N=C\c1cccnc1)c1cc(-c2ccc(Cl)s2)[nH]n1 | inconclusive: 17.8 µM [inhibitor, partial curve, poor fit] |
| C[C@H](NC(=O)C1CCC(CNC(=O)[C@@H]2CCCN2C(=O)OC(C)(C)C)CC1)C(=O)O (some centres not stated) | inactive |
| O=C(O)c1cccc(N2C(=O)c3ccc4c5c(ccc(c35)C2=O)C(=O)N(c2cccc(C(=O)O)c2)C4=O)c1 | inconclusive: 28.2 µM [inhibitor, single point] |
| CC(=O)c1c(C)oc2ccc(NS(=O)(=O)c3ccc(O)c(C(=O)O)c3)cc12 | inconclusive: 35.5 µM [inhibitor, partial curve, poor fit] |
| O=C(O)c1ccc(-c2ccc(O)c(F)c2)cc1 | inconclusive: 70.8 µM [inhibitor, single point] |
| O=C1CCC(c2ccc3c(c2)CCC3)=NN1 | inconclusive: 35.5 µM [inhibitor, full curve, poor fit] |
| CCc1nc(N2CCCC(C)C2)c2oc3ccccc3c2n1 (configuration not stated) | inconclusive: 25.1 µM [inhibitor, partial curve, poor fit] |
| Cc1c(Cl)cccc1NC(=O)c1cc2nc(-c3ccc4c(c3)OCO4)cc(C(F)(F)F)n2n1 | inactive |
| O=C(COc1ccccc1)OCc1cc(=O)n2nc(-c3cccs3)sc2n1 | inconclusive: 89.1 µM [inhibitor, single point] |
| COCc1cc(N2CCOCC2)nc(-c2ccccc2)n1 | inconclusive: 89.1 µM [inhibitor, single point] |
| CC(=O)Nc1ccc(SCCN2CCN(CCc3ccccc3)CCC2=O)cc1 | inconclusive: 28.2 µM [inhibitor, partial curve, poor fit] |

Structural class, those above with an aryl methoxy group

| Compound | Potency |
| --- | --- |
| C/C=C/c1ccc(OCC(O)CN2CCCCCCC2)c(OC)c1 (configuration not stated) | inconclusive: 3.16 µM [inhibitor, full curve] |
| COc1ccc(NC(=O)c2cc(S(=O)(=O)N3CCCCC3)c[nH]2)c(OC)c1 | inconclusive: 44.7 µM [inhibitor, partial curve, poor fit] |
| COc1ccc(C2=NS(=O)(=O)N(C)C(C(=O)Nc3ccc4c(c3)OCO4)=C2)cc1 | inconclusive: 100 µM [inhibitor, single point] |
| COc1ccc(-n2c(SC3CCOC3=O)nc3ccccc32)cc1 (configuration not stated) | inconclusive: 15.8 µM [inhibitor, full curve, poor fit] |
| COc1cccc(NS(=O)(=O)c2ccc3[nH]cc(C(=O)N4CCCC4)c(=O)c3c2)c1 | inactive |
| COc1cc(C2CC(=O)Nc3c2c(=O)n(C)c2ncnn32)cc(OC)c1OC (configuration not stated) | active: 50.1 µM |
| COc1ccccc1NC(=O)C(=O)NCC(c1cccnc1)N1CCc2ccccc2C1 (configuration not stated) | inactive |
